# Test results: patent US6890920B2, “Quaternary ammonium compounds” (Pharmacia & Upjohn Company, priority 1992, dated 2005)
# At least one compound was matched to its structure with a doubt left.
# Key:
# [1] = tested on: methacholine-induced bronchoconstriction in Balb/c mice; assay: Bronchodilatory effect of inhaled compounds, Example IV (10 min to 24 h); assay type: in vivo; conditions: inhalation of 1.44 mg/ml vs 1.24 mg/ml ipratropium bromide, FIG. 5
# [2] = Treatment of patients with chronic COPD (Examples A, B); assay type: in vivo, human; conditions: person, FEV1 1.5 liters, aerosol 1 mg every 12 hr, after two weeks
# [3] = Treatment of patients with asthma (Examples C, D, E); assay type: in vivo, human; conditions: person
smiles,measurement,setting,value
Cc1ccc(O)c([C@H](CC[N+](C)(C(C)C)C(C)C)c2ccccc2)c1.[I-] [Example 2],duration of bronchodilatory effects,[1],longer duration when compared to ipratropium bromide
same,dyspnea tolerance,[2],improved
same,peak flow,"[3]; asthma, morning peak flow less than 2 l/sec before, powder 0.1 mg every 8 hr",4 to 5 L/s
same,peak flow,"[3]; severe asthma, morning peak flow less than 3 l/sec before, aerosol 2 mg three times daily, after a week",6 L/s
